Measurements reported in US20230236192A1.
These are yes or no findings as the source states them, for the method shown.

Amino acid sequences for entries named in this document (tags omitted). A change or cut given only in a name is not applied to a line headed by its entry.
UniProt Q9Y5Y6: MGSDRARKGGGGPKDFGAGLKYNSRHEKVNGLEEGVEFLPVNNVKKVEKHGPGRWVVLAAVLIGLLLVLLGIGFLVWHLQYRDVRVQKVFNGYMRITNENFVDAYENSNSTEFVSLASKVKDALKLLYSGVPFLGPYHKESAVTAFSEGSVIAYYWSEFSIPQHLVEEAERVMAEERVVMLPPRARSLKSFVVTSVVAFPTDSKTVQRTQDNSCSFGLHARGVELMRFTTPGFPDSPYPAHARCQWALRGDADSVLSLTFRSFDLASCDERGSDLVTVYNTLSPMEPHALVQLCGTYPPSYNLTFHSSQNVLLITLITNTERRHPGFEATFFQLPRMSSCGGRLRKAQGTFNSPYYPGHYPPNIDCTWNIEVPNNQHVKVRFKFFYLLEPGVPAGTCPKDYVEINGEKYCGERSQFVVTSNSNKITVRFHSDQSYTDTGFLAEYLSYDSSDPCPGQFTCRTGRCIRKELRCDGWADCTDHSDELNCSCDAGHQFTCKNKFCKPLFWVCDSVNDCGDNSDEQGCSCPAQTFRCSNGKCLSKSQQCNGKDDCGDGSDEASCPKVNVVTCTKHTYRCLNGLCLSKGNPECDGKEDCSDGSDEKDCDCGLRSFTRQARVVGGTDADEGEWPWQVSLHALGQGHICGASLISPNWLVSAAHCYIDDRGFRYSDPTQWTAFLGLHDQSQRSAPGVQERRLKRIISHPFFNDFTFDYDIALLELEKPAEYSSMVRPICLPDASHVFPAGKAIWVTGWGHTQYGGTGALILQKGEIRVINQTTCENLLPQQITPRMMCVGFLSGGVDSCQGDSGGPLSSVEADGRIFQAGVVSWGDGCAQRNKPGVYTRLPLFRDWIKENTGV

Tests used:
[1] = molecular target: full-length zymogen (hepsin); assay: sandwich ELISA screening
Matriptase = Matriptase (UniProt Q9Y5Y6); assay: condition: assayed at 280 ng/ml; 10 ng/ml sensitivity; Hepsin sandwich ELISA, recombinant protein, 8 wells

binding [1]: no binding | binding (Matriptase): no binding
B1: mAb 5B8 (antibody, V domains shown)
VH: DVQLVESGGDLVQPGESRKLSCAASGFTFSSFGMHWVRQAPEKGLEWVAYISSGSSAIYYADTVKGRFTISRDNPKNTLFLHMTSLRSEDTAIYYCAGSNWDYFDYWGQGTTLTVSS
VL: DIVMSQSPSSLAVSAGEKVTMSCKSSQSLLNSRIRKNYLAWYQQKPGQSPKLLIYWASTRESGVPDRFTGSGSGTDFTLTISSVQAEDLAVYYCKQSYNLWTFGGGTKLEIK
